Reference: PubChem BioAssay AID540256 (National Center for Advancing Translational Sciences (NCATS), 2011)
About 3,700 (1.2%) of roughly 300,000 compounds were called active. Inconclusive results, whose numbers are uncertain, are shown with a selection of clear calls. The call rests on the fitted dose curve; tested in HEK293 cells. A potency beside an inconclusive call is a rough fit, not a confirmed value.
Potency means the concentration at half of the fitted maximal effect.

Assay: qHTS for Inhibitors of binding or entry into cells for Lassa Virus; further: nearly all actives have a fitted effect of over 50% in size
Details: Lassa virus pseudotype entry inhibition, cell reporter; series mostly up to 37.9 µM
For `O=C(O)COc1cnc2ccccc2n1`, the Potency was inconclusive: 5.62 µM [inhibitor, single point]. With `Cc1ccc(C)c2sc(N3CCN(C(=O)c4ccco4)CC3)nc12` the Potency was inconclusive: 35.5 µM [inhibitor, single point]. With `Cc1cn2c(=O)c(S(=O)(=O)NC(C)c3ccccc3)c(C)nc2s1` (stereo not given) the Potency was “inactive”. In the case of `CCN1CCN(c2ccc(S(=O)(=O)N3CCCCC3)cc2NC(=O)COc2ccc(F)cc2Cl)CC1`, the Potency was inconclusive: 35.5 µM [inhibitor, single point]. In the case of `COC(=O)c1ccc(Cl)c(S(=O)(=O)N2CCCC2)c1`, the Potency was inconclusive: 35.5 µM [activator, single point]. With `N=c1c(S(=O)(=O)c2ccc(Cl)cc2)cc2c(=O)n3ccccc3nc2n1Cc1ccco1` the Potency was inconclusive: 10 µM [activator, partial curve, poor fit]. In the case of `CCCCc1ccc(NC(=O)CSc2nc(=O)n(CCN3CCOCC3)c3c2CCC3)cc1`, the Potency was “inactive”. With `O=C(CSCc1ccccc1)N1CCN(c2cccc(C(F)(F)F)c2)CC1` the Potency was “inactive”. For `O=C(c1cn(-c2ccccc2)nc1-c1ccccc1)N1CCN(c2ccccn2)CC1`, the Potency was inconclusive: 8.2 µM [inhibitor, single point]. With `COc1ccccc1-c1cc(C(F)(F)F)nc(S(=O)(=O)CCCC(=O)NC(C)C)n1` the Potency was inconclusive: 25.1 µM [inhibitor, single point]. For `CCN(CC)S(=O)(=O)c1ccc(N2CCOCC2)c(NC(=O)c2ccc(=O)[nH]c2)c1`, the Potency was inconclusive: 7.08 µM [inhibitor, full curve, poor fit]. For `Cc1ccc(C)c(N2CCN(C(=O)c3csc4ccccc34)CC2)c1`, the Potency was inconclusive: 17.8 µM [inhibitor, single point]. In the case of `O=C(N/N=C/c1cccnc1)c1ccccc1OCc1ccc(Br)cc1`, the Potency was “inactive”. In the case of `COc1ccc(N2CCN(C(=O)COC(=O)c3oc4ccc(OC)cc4c3C)CC2)cc1`, the Potency was “inactive”. With `O=C(c1ccc(SCc2ccco2)c([N+](=O)[O-])c1)N1CCOCC1` the Potency was inconclusive: 35.5 µM [activator, single point]. For `COC(=O)CSc1nc2c(c(-c3ccc(O)cc3)c1C#N)CCCC2`, the Potency was inconclusive: 1 µM [inhibitor, full curve, poor fit]. With `CCOc1ccc2nc(NC(=O)c3ccoc3C)sc2c1` the Potency was inconclusive: 10 µM [inhibitor, partial curve, poor fit]. With `C1=Nc2c(Nc3ccccc3)ncnc2Oc2ccccc21` the Potency was inconclusive: 29.1 µM [inhibitor, single point]. With `CCOc1ccc(NC(=O)Cn2nnc(C(=O)NCc3ccccc3OC)c2N)cc1` the Potency was inconclusive: 10 µM [activator, single point]. With `COc1ccc(C(C(=O)NC2CCCC2)N(C(=O)c2ccoc2C)c2ccc(C)c(C)c2)cc1` (stereo not given) the Potency was inconclusive: 2.31 µM [inhibitor, full curve, poor fit]. With `Cc1cc(Br)ccc1SCC(=O)OCC(=O)Nc1ncc(C(F)(F)F)cc1Cl` the Potency was inconclusive: 1 µM [activator, full curve]. For `CCn1c(O)c(N=NC(=O)c2ccc(CSc3nncn3C)cc2)c2ccccc21`, the Potency was “inactive”. In the case of `CC(C)(C)NS(=O)(=O)c1ccc2nc(NC(=O)Cc3cccs3)sc2c1`, the Potency was inconclusive: 14.1 µM [inhibitor, partial curve, poor fit]. With `O=C(Nc1ccc(NC(=S)NC(=O)c2ccccc2F)cc1)c1cccs1` the Potency was inconclusive: 1 µM [inhibitor, full curve]. In the case of `COc1ccccc1C(=O)N1CCN(Cc2c[nH]c3ccccc23)CC1`, the Potency was “inactive”. In the case of `Cc1c(C(=O)N2CC(C(=O)N3CCCCC3)Oc3ccccc32)oc2ccccc12` (stereo not given), the Potency was “inactive”. For `N#Cc1ccc(-c2ccccc2)nc1SCC(=O)c1cc2ccccc2oc1=O`, the Potency was inconclusive: 35.5 µM [inhibitor, single point]. In the case of `CC1C/C(=N/NC(=O)c2cccs2)CC(C)(C)C1` (stereo not given), the Potency was inconclusive: 10.3 µM [activator, partial curve, poor fit]. In the case of `Cc1sc2nc(CSc3nnnn3-c3ccc(Cl)cc3)[nH]c(=O)c2c1C`, the Potency was inconclusive: 35.5 µM [inhibitor, single point]. In the case of `COc1ccc(S(=O)(=O)NCCc2sc(-c3ccccc3)nc2C)cc1F`, the Potency was inconclusive: 10 µM [inhibitor, partial curve, poor fit]. In the case of `COc1ccc(NC2=CC(=O)CC(c3ccc(C)cc3)C2)c(OC)c1` (stereo not given), the Potency was “inactive”. For `CCc1noc(C)c1C(=O)Nc1ccccc1C(C)(C)C`, the Potency was inconclusive: 5.62 µM [activator, single point]. For `O=C(NCC(c1ccco1)N1CCCCC1)c1ccc([N+](=O)[O-])s1` (stereo not given), the Potency was inconclusive: 35.5 µM [inhibitor, single point]. With `O[C@H]1CN(Cc2cccs2)[C@@H](c2ccccc2)C[C@H]1n1cc(C2CC2)nn1` the Potency was inconclusive: 0.995 µM [activator, full curve, poor fit]. With `COc1ccc(NS(=O)(=O)c2ccc(C)c(C(=O)NNC(=O)c3ccccc3O)c2)cc1` the Potency was inconclusive: 35.5 µM [inhibitor, partial curve, poor fit]. In the case of `Cc1cc(F)ccc1NC(=O)c1ccc(NS(=O)(=O)c2cc(C(C)(C)C)ccc2C)cc1`, the Potency was inconclusive: 25.9 µM [inhibitor, single point]. In the case of `COc1ccc(NC(=O)NNC(=O)C(C)Oc2ccc3ccccc3c2)cc1` (stereo not given), the Potency was “inactive”. In the case of `COc1ccc(C(=O)NC2CCSc3ccccc32)cc1S(=O)(=O)N1CCOCC1` (stereo not given), the Potency was “inactive”. In the case of `Cc1ccc(Cn2c(CN3CCC(C(=O)NCC(C)c4ccccc4)CC3)cc3ccccc32)cc1` (stereo not given), the Potency was “inactive”. For `CC(C)Cc1ccc(C2=CSC3=NCCN23)cc1`, the Potency was inconclusive: 35.5 µM [inhibitor, single point]. In the case of `C[C@](N)(Cc1ccc(O)c(O)c1)C(=O)O`, the Potency was inconclusive: 0.0628 µM [inhibitor, full curve, poor fit]. For `CCCOc1ccc(NC2=CC(=O)CC(C)(C)C2)cc1`, the Potency was inconclusive: 4.11 µM [activator, single point]. For `COc1ccc(S(=O)(=O)NNC(=S)NCCc2ccccc2)c(OC)c1`, the Potency was “inactive”. For `CC1c2ccccc2-c2ccccc2N1C` (stereo not given), the Potency was “inactive”. In the case of `COc1ccccc1C1C(C#N)=C(N)N(N(C)C)C2=C1C(=O)CC(C)(C)C2` (stereo not given), the Potency was inconclusive: 35.5 µM [inhibitor, single point]. In the case of `CCCN(Cc1ccccc1)C(=S)Nc1ccc(OC(F)F)cc1`, the Potency was “inactive”. With `C/C(=N/NC(=O)c1ccoc1C)c1ccc(NC(=O)c2ccncc2)cc1` the Potency was “inactive”. For `S=C(c1ccccc1)N1CCCC1`, the Potency was inconclusive: 15.8 µM [inhibitor, single point]. With `CCc1ccccc1NC(=O)c1cccc(N2C(=O)C3C4CCC(C4)C3C2=O)c1` (stereo not given) the Potency was “inactive”. For `COC(=O)c1c(NC(=O)CC2SC(N)=NC2=O)sc2c1CCC(C(C)(C)C)C2` (stereo not given), the Potency was inconclusive: 10 µM [inhibitor, partial curve, poor fit]. In the case of `COCCn1c(=NC(=O)c2ccc3c(c2)OCCO3)sc2cc(NC(C)=O)ccc21`, the Potency was inconclusive: 8.91 µM [activator, partial curve, poor fit]. In the case of `Cc1ccc2nc(NC(=O)c3ccc(OCC4CCCO4)cc3)sc2c1` (stereo not given), the Potency was inconclusive: 2.51 µM [activator, partial curve, poor fit]. With `c1cnc(N2CCN(Cc3ccc4c(c3)OCO4)CC2)nc1` the Potency was inconclusive: 20.6 µM [activator, partial curve, poor fit]. With `Cc1ccc(C(=O)/C=C/c2cn(CC(O)CN3CCCCCC3)c3ccccc23)cc1` (stereo not given) the Potency was “inactive”. In the case of `COc1ccccc1N1CCN(C(=O)CSc2nnc3n2C(C)(C)Cc2ccccc2-3)CC1`, the Potency was inconclusive: 23.1 µM [inhibitor, partial curve, poor fit]. With `CCCC(=O)NC(=S)Nc1ccc(S(=O)(=O)N2CCc3ccccc32)cc1` the Potency was inconclusive: 14.1 µM [inhibitor, single point]. With `CNC(=O)c1ccc(Nc2nnc(-c3ccc(C)c(S(=O)(=O)NCC4CCCO4)c3)c3ccccc23)cc1` (stereo not given) the Potency was inconclusive: 14.1 µM [inhibitor, single point]. For `CCOC(=O)c1ccc(N2C(=O)Cc3ccccc3C2=O)cc1`, the Potency was “inactive”. In the case of `O=Cc1c(Cl)nc2ccccn12`, the Potency was “inactive”. With `COc1ccc(S(=O)(=O)NCCc2sc(-c3cccc(F)c3)nc2C)cc1` the Potency was “inactive”. With `O=C(Nc1sc2c(c1C(=O)NCC(O)CO)CCCC2)c1ccccc1` (stereo not given) the Potency was “inactive”. With `CNC(=O)c1c(NC(=O)C2=COCCO2)sc2c1CCCC2` the Potency was “inactive”. With `CCCCCCCNC1=CC(=O)CC(c2ccco2)C1` (stereo not given) the Potency was “inactive”. In the case of `COc1ccc(C(=O)N2CCN(C(=O)COc3ccc(C)cc3)CC2)cc1OC`, the Potency was “inactive”. With `OCCN(CCO)CC(O)COc1ccc(C23CC4CC(CC(C4)C2)C3)cc1` (stereo not given) the Potency was inconclusive: 10 µM [inhibitor, partial curve]. In the case of `COc1cccc(C2=NN(C(=O)c3ccccc3)C(O)(C(F)(F)F)C2)c1` (stereo not given), the Potency was “inactive”. For `COc1ccc(CCNC(=O)C(=O)NCC2CCCN2S(=O)(=O)c2cccs2)cc1` (stereo not given), the Potency was inconclusive: 11.2 µM [inhibitor, single point]. In the case of `Cc1ccccc1N(CC(=O)N/N=C/c1cc(C)n(-c2ccccc2C)c1C)S(C)(=O)=O`, the Potency was “inactive”. With `C/C(CC(=O)Nc1cccc(C(F)(F)F)c1)=N\NC(=O)C(=O)NCC(C)C` the Potency was inconclusive: 35.5 µM [inhibitor, single point]. With `CN1CCN(/C=N/C2=C(C#N)C(c3ccccc3)C3=C(CC(C)(C)CC3=O)O2)CC1` (stereo not given) the Potency was “inactive”.
